The name of at least one read-out is uncertain.
Assay: PHA-001 study: PK interaction study with methotrexate in RA patients
Details: single 400 mg SC CDP-870 with weekly oral 5-17.5 mg MTX

## CN(Cc1cnc2nc(N)nc(N)c2n1)c1ccc(C(=O)N[C@@H](CCC(=O)O)C(=O)O)cc1 [MTX, methotrexate]
  effect of CDP-870 on AUC or Cmax of MTX: did not have a statistically or clinically meaningful effect
